According to publication PMC4837458:
For at least one entry, the source does not settle the construct or the ends of the probe. For some of these results: The comparison behind a weaker result is the experiment's own reference, which may not be listed here. For some of these results: At least one verdict was read from the data and is not stated in words by the source.

Key:
[1] = system: dPPR-U8A2 N318S,D348N,N353S,D383N; test: EMSA; settings: reduced or abolished; EMSA: 25 mM Tris-HCl pH 8.0, 5 mM MgCl2, 5 mM DTT, 0.1 mg/ml BSA, 50 ng/ml heparin, 10% glycerol, ~2 nM 32P-RNA, 20 min on ice; recombinant protein; protein details: C-terminal 6xHis; label: 5'-32P
[2] = system: dPPR-U8G2 N318T,N353T; test: EMSA; settings: reduced or abolished; EMSA: 25 mM Tris-HCl pH 8.0, 5 mM MgCl2, 5 mM DTT, 0.1 mg/ml BSA, 50 ng/ml heparin, 10% glycerol, ~2 nM 32P-RNA, 20 min on ice; recombinant protein; protein details: C-terminal 6xHis; label: 5'-32P
[3] = system: dPPR-U8G2 N318T,N353T; test: X-ray crystallography; settings: 2.53 A; recombinant protein; protein details: C-terminal 6xHis
[4] = system: dPPR-U8A2 N318S,D348N,N353S,D383N; test: X-ray crystallography; settings: 2.60 A; recombinant protein; protein details: C-terminal 6xHis

UUUUUUUUUU [U10 target]
binding result [1]: binds more weakly | binding result [2]: binds more weakly

GGGGUUUUGGUUUUCCCC [18-nt U8G2 crystal RNA]
binding result [3]: binds

GGGGUUUUAAUUUUCCCC [18-nt U8A2 crystal RNA]
binding result [4]: binds
